{"sequences": {"note": "Protein sequences, listed by entry. Tags and fused reporters are not part of them.", "UniProt Q96EB6": "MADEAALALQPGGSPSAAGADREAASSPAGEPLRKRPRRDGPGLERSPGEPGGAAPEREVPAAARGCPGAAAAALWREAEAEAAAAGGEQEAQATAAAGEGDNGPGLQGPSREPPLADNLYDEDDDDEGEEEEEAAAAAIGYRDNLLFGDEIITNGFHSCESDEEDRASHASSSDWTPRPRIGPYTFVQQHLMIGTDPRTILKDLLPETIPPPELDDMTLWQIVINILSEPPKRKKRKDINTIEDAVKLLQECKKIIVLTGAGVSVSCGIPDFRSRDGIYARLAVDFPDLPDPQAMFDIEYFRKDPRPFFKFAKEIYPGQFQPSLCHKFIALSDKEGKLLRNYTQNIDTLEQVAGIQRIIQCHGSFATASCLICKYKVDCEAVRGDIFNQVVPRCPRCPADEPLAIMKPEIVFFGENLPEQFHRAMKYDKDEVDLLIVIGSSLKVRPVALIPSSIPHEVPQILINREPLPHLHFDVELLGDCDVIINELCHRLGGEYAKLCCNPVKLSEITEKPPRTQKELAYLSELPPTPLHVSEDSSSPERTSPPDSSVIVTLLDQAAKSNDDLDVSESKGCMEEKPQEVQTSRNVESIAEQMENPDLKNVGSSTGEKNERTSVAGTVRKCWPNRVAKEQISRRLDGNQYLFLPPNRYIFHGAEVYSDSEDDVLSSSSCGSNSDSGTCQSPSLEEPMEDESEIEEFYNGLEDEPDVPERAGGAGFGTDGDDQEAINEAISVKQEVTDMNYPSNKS", "UniProt Q09472": "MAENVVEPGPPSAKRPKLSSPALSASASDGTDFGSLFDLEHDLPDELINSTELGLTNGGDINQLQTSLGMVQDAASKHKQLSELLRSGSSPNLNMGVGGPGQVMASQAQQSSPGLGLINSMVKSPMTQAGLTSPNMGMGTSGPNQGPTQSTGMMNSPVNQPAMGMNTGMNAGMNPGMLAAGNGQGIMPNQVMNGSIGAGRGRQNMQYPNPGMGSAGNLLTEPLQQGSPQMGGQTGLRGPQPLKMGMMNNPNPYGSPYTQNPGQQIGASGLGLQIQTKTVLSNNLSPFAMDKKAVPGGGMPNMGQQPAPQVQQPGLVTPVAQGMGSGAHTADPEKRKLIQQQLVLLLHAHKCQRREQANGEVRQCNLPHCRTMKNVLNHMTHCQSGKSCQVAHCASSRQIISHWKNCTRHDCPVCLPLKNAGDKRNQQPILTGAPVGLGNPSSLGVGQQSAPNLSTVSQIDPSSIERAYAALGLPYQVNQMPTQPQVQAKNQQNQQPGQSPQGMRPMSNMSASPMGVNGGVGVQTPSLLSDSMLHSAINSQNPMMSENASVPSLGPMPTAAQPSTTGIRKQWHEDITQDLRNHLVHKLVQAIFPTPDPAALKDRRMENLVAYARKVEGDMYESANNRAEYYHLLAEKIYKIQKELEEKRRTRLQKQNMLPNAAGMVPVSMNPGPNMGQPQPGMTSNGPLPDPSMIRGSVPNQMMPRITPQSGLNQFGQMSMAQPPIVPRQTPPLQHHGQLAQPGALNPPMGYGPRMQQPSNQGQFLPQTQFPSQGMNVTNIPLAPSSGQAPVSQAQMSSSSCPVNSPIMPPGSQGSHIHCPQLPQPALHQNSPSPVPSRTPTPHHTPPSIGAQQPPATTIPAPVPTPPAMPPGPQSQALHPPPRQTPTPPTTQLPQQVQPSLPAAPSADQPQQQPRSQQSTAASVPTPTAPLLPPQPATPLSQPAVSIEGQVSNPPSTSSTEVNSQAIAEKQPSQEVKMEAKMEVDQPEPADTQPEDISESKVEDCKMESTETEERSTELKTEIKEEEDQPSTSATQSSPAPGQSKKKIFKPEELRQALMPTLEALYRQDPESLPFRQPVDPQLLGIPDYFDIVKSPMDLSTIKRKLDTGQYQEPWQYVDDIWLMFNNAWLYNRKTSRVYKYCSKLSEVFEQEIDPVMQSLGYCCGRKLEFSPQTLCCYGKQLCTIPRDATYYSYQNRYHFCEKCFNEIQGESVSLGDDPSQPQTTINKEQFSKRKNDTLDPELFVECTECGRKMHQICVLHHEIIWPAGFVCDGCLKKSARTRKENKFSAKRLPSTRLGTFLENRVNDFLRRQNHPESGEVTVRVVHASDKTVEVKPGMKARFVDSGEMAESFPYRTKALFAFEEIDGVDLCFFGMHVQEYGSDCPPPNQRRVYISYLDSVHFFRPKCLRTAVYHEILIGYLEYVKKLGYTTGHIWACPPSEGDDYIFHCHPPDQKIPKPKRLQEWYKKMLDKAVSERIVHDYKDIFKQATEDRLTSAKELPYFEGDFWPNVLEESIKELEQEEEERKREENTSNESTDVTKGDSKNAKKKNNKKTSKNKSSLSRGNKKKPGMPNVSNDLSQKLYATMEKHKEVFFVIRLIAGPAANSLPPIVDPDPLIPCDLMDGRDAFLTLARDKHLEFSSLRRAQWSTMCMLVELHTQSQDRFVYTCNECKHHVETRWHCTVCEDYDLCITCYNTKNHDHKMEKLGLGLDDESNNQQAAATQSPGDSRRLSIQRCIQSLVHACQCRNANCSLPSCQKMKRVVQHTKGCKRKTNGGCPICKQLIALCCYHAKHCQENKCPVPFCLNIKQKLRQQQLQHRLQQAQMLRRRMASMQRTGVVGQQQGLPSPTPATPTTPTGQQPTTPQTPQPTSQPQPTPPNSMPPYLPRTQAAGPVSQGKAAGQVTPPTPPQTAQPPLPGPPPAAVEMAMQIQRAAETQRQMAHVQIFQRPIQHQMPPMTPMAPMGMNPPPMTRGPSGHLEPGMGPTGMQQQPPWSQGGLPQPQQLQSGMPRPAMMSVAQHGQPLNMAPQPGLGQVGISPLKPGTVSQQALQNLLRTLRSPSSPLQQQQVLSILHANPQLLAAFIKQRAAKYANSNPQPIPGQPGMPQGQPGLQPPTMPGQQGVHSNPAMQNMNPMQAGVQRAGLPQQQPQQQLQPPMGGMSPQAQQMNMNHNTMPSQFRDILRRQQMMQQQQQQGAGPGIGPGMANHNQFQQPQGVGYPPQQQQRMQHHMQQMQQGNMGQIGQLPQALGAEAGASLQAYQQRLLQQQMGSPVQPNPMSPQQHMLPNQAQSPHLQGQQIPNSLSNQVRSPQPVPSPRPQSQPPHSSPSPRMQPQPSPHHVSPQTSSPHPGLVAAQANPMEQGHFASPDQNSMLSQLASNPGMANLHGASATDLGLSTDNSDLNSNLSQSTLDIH", "UniProt Q13547": "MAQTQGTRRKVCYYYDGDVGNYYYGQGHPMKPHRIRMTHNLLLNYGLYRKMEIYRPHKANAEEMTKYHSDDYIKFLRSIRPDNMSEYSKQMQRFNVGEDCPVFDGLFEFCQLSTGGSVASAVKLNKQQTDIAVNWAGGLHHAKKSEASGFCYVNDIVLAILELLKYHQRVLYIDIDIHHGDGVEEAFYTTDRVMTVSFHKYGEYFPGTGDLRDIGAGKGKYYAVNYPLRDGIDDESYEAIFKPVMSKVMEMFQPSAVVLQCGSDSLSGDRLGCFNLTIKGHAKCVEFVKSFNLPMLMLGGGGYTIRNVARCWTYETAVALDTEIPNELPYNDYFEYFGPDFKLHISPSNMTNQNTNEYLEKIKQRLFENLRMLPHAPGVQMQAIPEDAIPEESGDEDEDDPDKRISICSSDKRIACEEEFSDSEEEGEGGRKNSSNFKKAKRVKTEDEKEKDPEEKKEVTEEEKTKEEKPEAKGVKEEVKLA", "UniProt Q9NS91": "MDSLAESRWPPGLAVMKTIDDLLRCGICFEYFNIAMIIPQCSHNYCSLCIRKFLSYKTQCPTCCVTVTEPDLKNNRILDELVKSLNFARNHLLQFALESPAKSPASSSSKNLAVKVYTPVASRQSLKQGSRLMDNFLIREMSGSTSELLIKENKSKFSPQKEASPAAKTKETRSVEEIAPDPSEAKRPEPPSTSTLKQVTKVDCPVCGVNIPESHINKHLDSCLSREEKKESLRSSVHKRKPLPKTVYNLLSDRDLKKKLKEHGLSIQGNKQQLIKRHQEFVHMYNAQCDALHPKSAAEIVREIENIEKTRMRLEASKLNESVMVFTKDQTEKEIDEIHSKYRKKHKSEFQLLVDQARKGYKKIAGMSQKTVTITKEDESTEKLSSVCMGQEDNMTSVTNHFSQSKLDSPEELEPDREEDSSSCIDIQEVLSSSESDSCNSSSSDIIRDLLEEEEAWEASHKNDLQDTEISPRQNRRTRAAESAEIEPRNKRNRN"}, "source": "paper PMC7948452", "molecules": {"B1": {"name": "PP6R3/SAPS3 (protein, UniProt Q5H9R7 1-873)", "chain": "MFWKFDLHSSSHIDTLLEREDVTLKELMDEEDVLQECKAQNRKLIEFLLKAECLEDLVSFIIEEPPQDMDEKIRYKYPNISCELLTSDVSQMNDRLGEDESLLMKLYSFLLNDSPLNPLLASFFSKVLSILISRKPEQIVDFLKKKHDFVDLIIKHIGTSAIMDLLLRLLTCIEPPQPRQDVLNWLNEEKIIQRLVEIVHPSQEEDRHSNASQSLCEIVRLSRDQMLQIQNSTEPDPLLATLEKQEIIEQLLSNIFHKEKNESAIVSAIQILLTLLETRRPTFEGHIEICPPGMSHSACSVNKSVLEAIRGRLGSFHELLLEPPKKSVMKTTWGVLDPPVGNTRLNVIRLISSLLQTNTSSINGDLMELNSIGVILNMFFKYTWNNFLHTQVEICIALILASPFENTENATITDQDSTGDNLLLKHLFQKCQLIERILEAWEMNEKKQAEGGRRHGYMGHLTRIANCIVHSTDKGPNSALVQQLIKDLPDEVRERWETFCTSSLGETNKRNTVDLVTTCHIHSSSDDEIDFKETGFSQDSSLQQAFSDYQMQQMTSNFIDQFGFNDEKFADQDDIGNVSFDRVSDINFTLNTNESGNIALFEACCKERIQQFDDGGSDEEDIWEEKHIAFTPESQRRSSSGSTDSEESTDSEEEDGAKQDLFEPSSANTEDKMEVDLSEPPNWSANFDVPMETTHGAPLDSVGSDVWSTEEPMPTKETGWASFSEFTSSLSTKDSLRSNSPVEMETSTEPMDPLTPSAAALAVQPEAAGSVAMEASSDGEEDAESTDKVTETVMNGGMKETLSLTVDAKTETAVFKSEEGKLSTSQDAACKDAEECPETAEAKCAAPRPPSSSPEQRTGQPSAPGDTSVNGPV"}, "B2": {"name": "FLAG-TULP3 (protein, UniProt O75386 1-442)", "chain": "MEASRCRLSPSGDSVFHEEMMKMRQAKLDYQRLLLEKRQRKKRLEPFMVQPNPEARLRRAKPRASDEQTPLVNCHTPHSNVILHGIDGPAAVLKPDEVHAPSVSSSVVEEDAENTVDTASKPGLQERLQKHDISESVNFDEETDGISQSACLERPNSASSQNSTDTGTSGSATAAQPADNLLGDIDDLEDFVYSPAPQGVTVRCRIIRDKRGMDRGLFPTYYMYLEKEENQKIFLLAARKRKKSKTANYLISIDPVDLSREGESYVGKLRSNLMGTKFTVYDRGICPMKGRGLVGAAHTRQELAAISYETNVLGFKGPRKMSVIIPGMTLNHKQIPYQPQNNHDSLLSRWQNRTMENLVELHNKAPVWNSDTQSYVLNFRGRVTQASVKNFQIVHKNDPDYIVMQFGRVADDVFTLDYNYPLCAVQAFGIGLSSFDSKLACE"}}, "experiment_in_all_cases": "co-IP; 293T cells; lysis in 1% Triton X-100, 50 mM Tris-HCl pH 8.0, 150 mM NaCl; anti-FLAG M2 or anti-HA affinity gel, 2 h at 4 °C; five washes; elution with 3x FLAG peptide; western blot", "key": {"[1]": {"biological_target": "T1, FLAG-TULP3 (human) (UniProt O75386)", "T1 sequence": "B2 chain"}, "[2]": {"biological_target": "T1, FLAG-TULP3 (human)", "remark": "listed apart in the source"}, "[3]": {"biological_target": "SIRT1 (human (endogenous in HEK293T)) (UniProt Q96EB6)"}, "[4]": {"biological_target": "p300 (UniProt Q09472)"}, "[5]": {"biological_target": "HA-HDAC1 (UniProt Q13547)"}}, "note": "Where two headings read alike, the source gives them in different places. These are yes or no findings as the source states them, for the method shown. In cells and extracts the contact can be indirect. Some binding calls cover weakened binding; strength is not graded here. Sequences can lack the tags named with a protein."}
{"molecule": "HA-HDAC1 (from UniProt Q13547 1-482) (enzyme)", "values": [{"measurement": "binding", "setting": "[1]", "value": "binds"}]}
{"molecule": "p300 (from UniProt Q09472 1-2414) (enzyme)", "values": [{"measurement": "binding", "setting": "[1]", "value": "binds"}]}
{"molecule": "RAD18 (from UniProt Q9NS91 1-495) (enzyme)", "values": [{"measurement": "binding", "setting": "[1]", "value": "binds"}]}
{"molecule": "B1", "values": [{"measurement": "binding", "setting": "[2]", "value": "binds"}]}
{"molecule": "B2", "values": [{"measurement": "binding", "setting": "[3]", "value": "binds"}, {"measurement": "binding", "setting": "[4]", "value": "binds"}, {"measurement": "binding", "setting": "[5]", "value": "binds"}]}
